According to article PMC4493104:
No constants are given. Whether binding was seen depends on the method and setting. Binding seen in cells or lysates may run through a third protein. Some entries that bind do so weakly or less than the wild type. Tags and fused reporters may be left off the sequences shown. Each block holds one binder with its values, some of them ahead of it.

Legend:
[1] = target: T1, Rev1 (flag-tagged, rev1^flag) (fission yeast) (UniProt O94623); test: co-IP; whole cell extracts of cdc10 rev1^flag eso1^V5 cells arrested at 36°C for 3 h (G1); immunoprecipitation with anti-flag or anti-V5 antibodies, western blot
T1 sequence: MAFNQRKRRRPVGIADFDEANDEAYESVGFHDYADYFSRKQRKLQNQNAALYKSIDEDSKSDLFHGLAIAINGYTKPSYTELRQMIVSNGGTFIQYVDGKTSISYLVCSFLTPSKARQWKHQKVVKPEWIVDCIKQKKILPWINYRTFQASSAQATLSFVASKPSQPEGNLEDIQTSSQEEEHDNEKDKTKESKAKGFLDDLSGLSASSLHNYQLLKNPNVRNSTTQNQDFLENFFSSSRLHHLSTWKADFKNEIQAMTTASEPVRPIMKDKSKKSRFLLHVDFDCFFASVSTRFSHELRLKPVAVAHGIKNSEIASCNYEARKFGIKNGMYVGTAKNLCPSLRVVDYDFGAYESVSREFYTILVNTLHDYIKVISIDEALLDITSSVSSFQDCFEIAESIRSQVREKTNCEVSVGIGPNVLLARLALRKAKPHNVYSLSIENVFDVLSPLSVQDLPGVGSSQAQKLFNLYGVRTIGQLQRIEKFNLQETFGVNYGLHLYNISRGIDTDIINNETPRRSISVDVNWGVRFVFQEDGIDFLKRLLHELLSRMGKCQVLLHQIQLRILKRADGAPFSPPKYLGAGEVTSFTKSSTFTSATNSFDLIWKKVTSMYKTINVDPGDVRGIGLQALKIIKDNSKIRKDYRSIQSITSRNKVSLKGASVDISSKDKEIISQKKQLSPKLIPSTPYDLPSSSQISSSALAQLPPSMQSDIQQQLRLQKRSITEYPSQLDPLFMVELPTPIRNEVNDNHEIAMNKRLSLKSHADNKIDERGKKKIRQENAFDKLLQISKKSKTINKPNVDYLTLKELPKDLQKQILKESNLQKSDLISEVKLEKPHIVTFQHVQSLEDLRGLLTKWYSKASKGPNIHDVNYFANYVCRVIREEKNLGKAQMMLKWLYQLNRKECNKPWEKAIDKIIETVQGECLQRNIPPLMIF

[2] = target: T2, Pop1 (V5-tagged, pop1^V5) (fission yeast) (UniProt P87060); test: co-IP; whole cell extracts (LiNi method, EBL buffer) of fission yeast strains; immunoprecipitation of V5-tagged Pop1 or Pop2 with rabbit anti-V5 on anti-rabbit IgG magnetic beads, Rev1 forms detected by anti-flag blot; untagged strain or rabbit normal IgG as negative control; asynchronous and cdc25-synchronized cultures
T2 sequence: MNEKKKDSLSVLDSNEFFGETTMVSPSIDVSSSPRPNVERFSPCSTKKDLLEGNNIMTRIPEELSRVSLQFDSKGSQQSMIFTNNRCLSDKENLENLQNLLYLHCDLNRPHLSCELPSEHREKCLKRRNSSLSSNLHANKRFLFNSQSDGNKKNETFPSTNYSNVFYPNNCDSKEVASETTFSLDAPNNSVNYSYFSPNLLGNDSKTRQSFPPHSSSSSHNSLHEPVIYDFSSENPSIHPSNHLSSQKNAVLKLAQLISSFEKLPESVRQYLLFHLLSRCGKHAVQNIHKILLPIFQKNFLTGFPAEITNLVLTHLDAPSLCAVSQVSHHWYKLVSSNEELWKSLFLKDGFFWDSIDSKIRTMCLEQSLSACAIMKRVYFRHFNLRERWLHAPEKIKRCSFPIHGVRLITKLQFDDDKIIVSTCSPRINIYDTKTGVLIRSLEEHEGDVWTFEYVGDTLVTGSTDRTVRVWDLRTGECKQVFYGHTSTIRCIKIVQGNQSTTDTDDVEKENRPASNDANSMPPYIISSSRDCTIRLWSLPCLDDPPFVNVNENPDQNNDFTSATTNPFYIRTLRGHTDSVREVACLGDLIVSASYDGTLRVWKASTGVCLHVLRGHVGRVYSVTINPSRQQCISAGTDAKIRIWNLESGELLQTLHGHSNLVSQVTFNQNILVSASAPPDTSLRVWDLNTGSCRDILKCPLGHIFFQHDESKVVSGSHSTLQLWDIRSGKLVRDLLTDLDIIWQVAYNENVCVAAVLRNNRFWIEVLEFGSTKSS

[3] = target: T3, Pop2 (V5-tagged, pop2^V5) (fission yeast) (UniProt O14170); test: as above
T3 sequence: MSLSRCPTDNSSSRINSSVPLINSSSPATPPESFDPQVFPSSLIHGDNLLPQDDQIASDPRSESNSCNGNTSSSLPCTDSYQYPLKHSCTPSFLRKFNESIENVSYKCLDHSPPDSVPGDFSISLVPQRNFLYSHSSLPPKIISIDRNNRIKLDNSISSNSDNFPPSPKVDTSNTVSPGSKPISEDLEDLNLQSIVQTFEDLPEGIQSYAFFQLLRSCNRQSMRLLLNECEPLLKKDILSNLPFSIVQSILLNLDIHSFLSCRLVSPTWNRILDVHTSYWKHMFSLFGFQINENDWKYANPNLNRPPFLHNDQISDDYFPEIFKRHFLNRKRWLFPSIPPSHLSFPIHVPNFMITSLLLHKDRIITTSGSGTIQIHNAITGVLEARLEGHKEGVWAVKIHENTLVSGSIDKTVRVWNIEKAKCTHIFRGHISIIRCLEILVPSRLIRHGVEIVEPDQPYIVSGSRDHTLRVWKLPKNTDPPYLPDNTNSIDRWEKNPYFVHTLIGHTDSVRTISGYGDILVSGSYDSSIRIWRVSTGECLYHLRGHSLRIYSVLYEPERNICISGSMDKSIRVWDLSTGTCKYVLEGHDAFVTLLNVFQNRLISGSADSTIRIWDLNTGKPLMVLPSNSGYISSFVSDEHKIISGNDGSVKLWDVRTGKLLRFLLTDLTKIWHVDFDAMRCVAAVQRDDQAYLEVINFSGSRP

[4] = target: T4, Eso1 (V5-tagged, eso1^V5) (fission yeast) (UniProt O42917); test: co-IP; whole cell extracts of cdc10 rev1^flag eso1^V5 cells arrested at 36°C for 3 h (G1); immunoprecipitation with anti-flag or anti-V5 antibodies, western blot
T4 sequence: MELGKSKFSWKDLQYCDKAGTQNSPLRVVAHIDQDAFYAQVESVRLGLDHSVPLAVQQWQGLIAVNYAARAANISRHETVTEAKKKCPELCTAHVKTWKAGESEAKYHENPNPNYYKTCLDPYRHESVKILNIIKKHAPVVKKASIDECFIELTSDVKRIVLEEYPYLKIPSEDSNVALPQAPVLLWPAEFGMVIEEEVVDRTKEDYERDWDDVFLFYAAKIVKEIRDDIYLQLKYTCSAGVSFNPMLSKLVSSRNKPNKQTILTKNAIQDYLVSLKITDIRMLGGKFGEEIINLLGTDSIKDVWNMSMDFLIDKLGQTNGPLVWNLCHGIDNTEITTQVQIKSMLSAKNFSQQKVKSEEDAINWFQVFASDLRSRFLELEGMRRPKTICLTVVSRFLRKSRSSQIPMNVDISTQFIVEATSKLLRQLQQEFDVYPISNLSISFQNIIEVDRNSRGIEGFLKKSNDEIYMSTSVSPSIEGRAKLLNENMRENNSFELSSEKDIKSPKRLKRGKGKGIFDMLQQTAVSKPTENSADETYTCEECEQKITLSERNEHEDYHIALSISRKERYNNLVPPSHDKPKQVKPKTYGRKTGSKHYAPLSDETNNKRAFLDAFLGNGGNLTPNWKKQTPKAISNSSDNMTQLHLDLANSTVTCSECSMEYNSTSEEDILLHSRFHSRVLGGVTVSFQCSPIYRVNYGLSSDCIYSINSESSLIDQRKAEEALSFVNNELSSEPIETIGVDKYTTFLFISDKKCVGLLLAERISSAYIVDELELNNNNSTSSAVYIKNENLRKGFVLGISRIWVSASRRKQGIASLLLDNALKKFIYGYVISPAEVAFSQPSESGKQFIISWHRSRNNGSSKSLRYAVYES

[5] = target: T1, Rev1 (flag-tagged, rev1^flag) (fission yeast); test: co-IP; immunoprecipitation assay from fission yeast extracts; bait, tags and antibodies shown only in S2 Fig and S5 Fig

- binding [1]: binds
B1: Eso1 (V5-tagged, eso1^V5) (protein, UniProt O42917 1-872)
chain: MELGKSKFSWKDLQYCDKAGTQNSPLRVVAHIDQDAFYAQVESVRLGLDHSVPLAVQQWQGLIAVNYAARAANISRHETVTEAKKKCPELCTAHVKTWKAGESEAKYHENPNPNYYKTCLDPYRHESVKILNIIKKHAPVVKKASIDECFIELTSDVKRIVLEEYPYLKIPSEDSNVALPQAPVLLWPAEFGMVIEEEVVDRTKEDYERDWDDVFLFYAAKIVKEIRDDIYLQLKYTCSAGVSFNPMLSKLVSSRNKPNKQTILTKNAIQDYLVSLKITDIRMLGGKFGEEIINLLGTDSIKDVWNMSMDFLIDKLGQTNGPLVWNLCHGIDNTEITTQVQIKSMLSAKNFSQQKVKSEEDAINWFQVFASDLRSRFLELEGMRRPKTICLTVVSRFLRKSRSSQIPMNVDISTQFIVEATSKLLRQLQQEFDVYPISNLSISFQNIIEVDRNSRGIEGFLKKSNDEIYMSTSVSPSIEGRAKLLNENMRENNSFELSSEKDIKSPKRLKRGKGKGIFDMLQQTAVSKPTENSADETYTCEECEQKITLSERNEHEDYHIALSISRKERYNNLVPPSHDKPKQVKPKTYGRKTGSKHYAPLSDETNNKRAFLDAFLGNGGNLTPNWKKQTPKAISNSSDNMTQLHLDLANSTVTCSECSMEYNSTSEEDILLHSRFHSRVLGGVTVSFQCSPIYRVNYGLSSDCIYSINSESSLIDQRKAEEALSFVNNELSSEPIETIGVDKYTTFLFISDKKCVGLLLAERISSAYIVDELELNNNNSTSSAVYIKNENLRKGFVLGISRIWVSASRRKQGIASLLLDNALKKFIYGYVISPAEVAFSQPSESGKQFIISWHRSRNNGSSKSLRYAVYES

- binding [2]: binds
B2: Rev1KK (amino acids 761–818 of Rev1), flag-tagged (domain or fragment, UniProt O94623 761-818)
chain: KSHADNKIDERGKKKIRQENAFDKLLQISKKSKTINKPNVDYLTLKELPKDLQKQILK

- binding [2]: binds
- binding [3]: binds
- binding [4]: binds
B3: Rev1 (flag-tagged, rev1^flag) (protein, UniProt O94623 1-935)
chain: MAFNQRKRRRPVGIADFDEANDEAYESVGFHDYADYFSRKQRKLQNQNAALYKSIDEDSKSDLFHGLAIAINGYTKPSYTELRQMIVSNGGTFIQYVDGKTSISYLVCSFLTPSKARQWKHQKVVKPEWIVDCIKQKKILPWINYRTFQASSAQATLSFVASKPSQPEGNLEDIQTSSQEEEHDNEKDKTKESKAKGFLDDLSGLSASSLHNYQLLKNPNVRNSTTQNQDFLENFFSSSRLHHLSTWKADFKNEIQAMTTASEPVRPIMKDKSKKSRFLLHVDFDCFFASVSTRFSHELRLKPVAVAHGIKNSEIASCNYEARKFGIKNGMYVGTAKNLCPSLRVVDYDFGAYESVSREFYTILVNTLHDYIKVISIDEALLDITSSVSSFQDCFEIAESIRSQVREKTNCEVSVGIGPNVLLARLALRKAKPHNVYSLSIENVFDVLSPLSVQDLPGVGSSQAQKLFNLYGVRTIGQLQRIEKFNLQETFGVNYGLHLYNISRGIDTDIINNETPRRSISVDVNWGVRFVFQEDGIDFLKRLLHELLSRMGKCQVLLHQIQLRILKRADGAPFSPPKYLGAGEVTSFTKSSTFTSATNSFDLIWKKVTSMYKTINVDPGDVRGIGLQALKIIKDNSKIRKDYRSIQSITSRNKVSLKGASVDISSKDKEIISQKKQLSPKLIPSTPYDLPSSSQISSSALAQLPPSMQSDIQQQLRLQKRSITEYPSQLDPLFMVELPTPIRNEVNDNHEIAMNKRLSLKSHADNKIDERGKKKIRQENAFDKLLQISKKSKTINKPNVDYLTLKELPKDLQKQILKESNLQKSDLISEVKLEKPHIVTFQHVQSLEDLRGLLTKWYSKASKGPNIHDVNYFANYVCRVIREEKNLGKAQMMLKWLYQLNRKECNKPWEKAIDKIIETVQGECLQRNIPPLMIF

- binding [5]: binds
B4: Rev7 (as used in the immunoprecipitation with Rev1 and Rev1dK, S2 Fig) (protein, UniProt Q0E7J8 1-213)
chain: MENDTGWSVKKCIDIFGEFLLVSIHCILYARRLYPQDLFIKARKYNTIVWQSRHPILCEYIEEVVQSCIEELQTGSVHQVALSIINKEQREEERYVFSTDSIPIIPDFLLEKQISTNEPFTDAYVEYMRASLIQLLNITNGLPLIEQECTWTLRVTLKDGFPRPKQWEEWFLPPQARETDATRQFKGITIPVRNVDIGPMMTEIWVEKYTNSD
